Assay results taken from publication doi:10.1101/2025.03.04.641524.
These are yes or no findings as the source states them, for the method shown. Binding seen in cells or lysates may run through a third protein. Some results given as binding are weak or reduced against the parent protein; the word gives no strength. Tags and fused reporters may be left off the sequences shown.

Molecular target: T1, SpSwi6-5Flag (Schizosaccharomyces pombe) (UniProt P40381)
T1 sequence: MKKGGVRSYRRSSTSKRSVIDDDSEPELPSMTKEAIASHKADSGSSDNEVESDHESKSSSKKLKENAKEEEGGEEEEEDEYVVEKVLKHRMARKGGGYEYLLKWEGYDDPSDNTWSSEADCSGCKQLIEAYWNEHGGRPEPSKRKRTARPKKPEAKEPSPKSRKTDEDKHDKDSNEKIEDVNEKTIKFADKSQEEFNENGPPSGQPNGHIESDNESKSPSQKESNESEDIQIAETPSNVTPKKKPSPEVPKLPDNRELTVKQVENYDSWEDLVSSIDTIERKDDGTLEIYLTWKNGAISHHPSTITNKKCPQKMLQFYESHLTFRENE
Test: co-IP

binding	Substance
binds	histone H3 di-methylated on lysine 9 (H3K9me2) (from UniProt P61830 1-136)
binds	histone H3 tri-methylated on lysine 9 (H3K9me3) (from UniProt P61830 1-136)
